PubChem BioAssay AID1224828 – NIAID | 2016
Shown is one part, drawn at random, of about 17,000 reagents. 762 of all reagents (4.5%) were called active. 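Active calls include both raised and lowered p65 entry, mostly lowered; wells with fewer than 50 cells lack a z-score.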 The raw values are shown without normalisation. Unmarked entries are inactive.

Purpose: 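Find genes required for NF-kappaB p65 moving into the nucleus after LPS in mouse macrophages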 (primary screen)
System: mouse RAW264.7 G9 macrophage reporter cells (GFP-p65, Tnf promoter-mCherry)
Knock-down reagent: siRNA pool against mouse genes, 100 nM
Timing: 2 days siRNA transfection, then 40 min LPS before fixation
Treatment: LPS (Salmonella minnesota R595) at 10 ng/ml
Measurement: 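Imaged p65 nuclear translocation ratio, normalised to the plate median, converted to robust z-scores and averaged across two replicates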
Direction: p65 translocation robust z-score: higher = more nuclear NF-kappaB p65 after LPS than the plate median; nuclear/cytoplasmic p65 ratio: higher = more nuclear NF-kappaB p65
Rule for the call: 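Called active when z exceeds 3.3 or falls under -1.56 (median of Tlr4 controls), giving activity score of at least 50; no calls for control wells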
Calls: active = hit (p65 shift raised or lowered); inactive = no clear change

target	PubChem SID	p65 translocation robust z-score	nuclear/cytoplasmic p65 ratio, rep 1	nuclear/cytoplasmic p65 ratio, rep 2	low cell count flag
Sult2a2	SID315469496	2.06	1.7	2	enough cells to score
Brms1l	SID315470985	1.4	1.61	1.73	enough cells to score
Uba52	SID315469897	-0.86	1.34	1.43	enough cells to score
Rnf144b	SID315478181	1.96	1.82	1.71	enough cells to score
Nlrp4f	SID315476112	0.54	1.51	1.59	enough cells to score
Treml6	SID315481239	1.19	1.77	2.03	enough cells to score
Vmn1r177	SID315481839	0.34	1.36	1.33	enough cells to score
Pak1	SID315468383	1.58	2.1	1.57	enough cells to score
Or5t5	SID315480051	-1.32	1.49	1.36	enough cells to score
Mphosph9	SID315480881	-0.85	1.34	1.23	enough cells to score
Rab37	SID315471881	-0.58	1.3	1.16	enough cells to score
Ttyh1	SID315471820	-1.11	1.29	1.06	enough cells to score
Tcstv3	SID315479294		1.26	1.15	fewer than 50 cells per well; well left out of scoring
Anp32a	SID315465417	-0.95	1.43	1.57	enough cells to score
Ankle1	SID315479162		1.09	1.08	fewer than 50 cells per well; well left out of scoring
Ptprt	SID315468823	-0.32	1.7	1.29	enough cells to score
Taf1	SID315480934	-0.91	1.59	1.23	enough cells to score
Usp48	SID315477192		1.33	1.04	fewer than 50 cells per well; well left out of scoring
Pam	SID315468386	0.32	1.42	1.33	enough cells to score
Rps15a	SID315480753		1.17	1.17	fewer than 50 cells per well; well left out of scoring
Nedd9	SID315468129	-1.25	1.58	1.4	enough cells to score
Tbrg1	SID315469590		1.4	1.11	fewer than 50 cells per well; well left out of scoring
Tmprss12	SID315475065		1.29	1.47	fewer than 50 cells per well; well left out of scoring
Cdh26	SID315481786	2.51	2.1	1.83	enough cells to score
Mmgt2	SID315478036	-0.01	1.59	1.83	enough cells to score
Cdk7	SID315465912	0.3	1.83	1.34	enough cells to score
Vmn1r13	SID315476990		1.15	1.18	fewer than 50 cells per well; well left out of scoring
Gm5115	SID315481608		2.01	1.96	fewer than 50 cells per well; well left out of scoring
Sppl2b	SID315474693	0.04	1.29	1.21	enough cells to score
Zfp740	SID315473624		1.13	1.18	fewer than 50 cells per well; well left out of scoring
Slc12a6	SID315476633	0.28	1.5	1.62	enough cells to score
Hmgcs1	SID315477549	-0.59	1.28	1.31	enough cells to score
Sptlc2	SID315469455		1.49	1.18	fewer than 50 cells per well; well left out of scoring
Susd4	SID315476088	3.96 (active)	2.01	1.42	enough cells to score
Ubc	SID315469899	-0.95	1.41	1.34	enough cells to score
1810055G02Rik	SID315474438		1.54	1.36	fewer than 50 cells per well; well left out of scoring
Gckr	SID315478864	0.19	1.43	1.43	enough cells to score
Mical2	SID315481414	-0.39	1.51	1.6	enough cells to score
Rassf5	SID315471200	0.87	1.68	1.6	enough cells to score
4631423B10Rik	SID315476820	1.36	1.4	1.46	enough cells to score

Copied from the list:
Under “nuclear/cytoplasmic p65 ratio, rep 2”, Nedd9 [SID315468129] reads 1.4
Pam [SID315468386], low cell count flag = enough cells to score
Under “nuclear/cytoplasmic p65 ratio, rep 1”, Ubc [SID315469899] shows 1.41
Under “nuclear/cytoplasmic p65 ratio, rep 2”, Gckr [SID315478864] shows 1.43
Mmgt2 [SID315478036], p65 translocation robust z-score = -0.01
